The list is a part of this screen's results and no random one: it is rich in T/C values a quarter to a half above the control, in often repeated tests (any T/C) and in doses without a T/C. Other doses and runs of a compound stand elsewhere. T/C gives the treated animals as a percentage of the vehicle group. Some entries give survivors of the animals treated and no T/C: the source holds a T/C of zero for them, seemingly a mark for toxic or unscored doses. Some survivor counts are full or nearly so, which does not show that the dose was tolerated: survival well below the control is almost never listed, so the zero probably covers shortened survival too. Counts of survivors are from the toxicity check (mostly the fifth day) where no day follows; animals may have died later. Schedule codes are those of the source, taken here to give the interval after Q, in days (D) or hours (H), and the number of doses after X. Some molecules as drawn cover several salts, stereoisomers or complexes of the source; a dose is that of the sample tested. For survival time, the PubChem record calls one and a half times the control and up active, and a quarter to a half above the control has no call in these data; cut-offs in other NCI protocols can differ. Some entries were tested several times; the values are given in rising order.
Test system: L1210 leukemia ip in BDF1 mice, survival T/C
Experiment: NCI In Vivo Anticancer Drug Screen. Data for tumor model L1210 Leukemia (intraperitoneal) in B6D2F1 (BDF1) mice
Settings: higher T/C = longer survival

SMILES: NC(C/[N+]([O-])=N/O)C(=O)O (stereo not given)
- T/C (T/C endpoint: mean survival time, dose: 25.0 mg/kg/injection, schedule: Q01DX009 (ip), vehicle: saline): 125 % of control
- T/C (T/C endpoint: mean survival time, dose: 32.0 mg/kg/injection, schedule: Q03HX016 (ip), vehicle: saline): 125 % of control
- T/C (T/C endpoint: mean survival time, dose: 50.0 mg/kg/injection, schedule: Q01DX009 (ip), vehicle: saline): 120, 127, 129, 141 % of control
- T/C (T/C endpoint: mean survival time, dose: 64.0 mg/kg/injection, schedule: Q03HX016 (ip), vehicle: saline): 127 % of control
- T/C (T/C endpoint: mean survival time, dose: 67.0 mg/kg/injection, schedule: Q01DX009 (ip), vehicle: saline with Tween-80): 128 % of control
- T/C (T/C endpoint: mean survival time, dose: 80.0 mg/kg/injection, schedule: Q01DX009 (ip), vehicle: saline): 131 % of control
- T/C (T/C endpoint: mean survival time, dose: 82.0 mg/kg/injection, schedule: Q04DX003 (ip), vehicle: saline with Tween-80): 126 % of control
- T/C (T/C endpoint: mean survival time, dose: 100.0 mg/kg/injection, schedule: Q01DX003 (ip), vehicle: sodium bicarbonate): 133 % of control
- T/C (T/C endpoint: mean survival time, dose: 100.0 mg/kg/injection, schedule: Q01DX009 (ip), vehicle: saline with Tween-80): 140 and 141 % of control
- T/C (T/C endpoint: mean survival time, dose: 100.0 mg/kg/injection, schedule: Q01DX009 (ip), vehicle: saline): 127, 136, 141, 146 % of control
- T/C (T/C endpoint: mean survival time, dose: 100.0 mg/kg/injection, schedule: Q04DX003 (ip), vehicle: Klucel (hydroxypropylcellulose) (HPC)): 125 % of control
- T/C (T/C endpoint: mean survival time, dose: 100.0 mg/kg/injection, schedule: Q04DX003 (ip), vehicle: saline with Tween-80): 145 % of control
- T/C (T/C endpoint: mean survival time, dose: 100.0 mg/kg/injection, schedule: Q04DX003 (ip), vehicle: saline): 128, 129, 142, 148 % of control
- T/C (T/C endpoint: mean survival time, dose: 124.0 mg/kg/injection, schedule: Q04DX003 (ip), vehicle: saline with Tween-80): 129 % of control
- survivor count (T/C endpoint: mean survival time, dose: 128.0 mg/kg/injection, schedule: Q01DX009 (oral), vehicle: saline): 8 of 8
- T/C (T/C endpoint: mean survival time, dose: 128.0 mg/kg/injection, schedule: Q03HX024 (ip), vehicle: saline): 143 % of control
- T/C (T/C endpoint: mean survival time, dose: 150.0 mg/kg/injection, schedule: Q01DX009 (ip), vehicle: saline): 142 % of control
- T/C (T/C endpoint: mean survival time, dose: 187.0 mg/kg/injection, schedule: Q04DX003 (ip), vehicle: saline with Tween-80): 137 % of control
- survivor count (T/C endpoint: mean survival time, dose: 200.0 mg/kg/injection, schedule: Q01DX009 (ip), vehicle: saline with Tween-80): 6 of 6
- T/C (T/C endpoint: mean survival time, dose: 200.0 mg/kg/injection, schedule: Q04DX003 (ip), vehicle: Klucel (hydroxypropylcellulose) (HPC)): 138 % of control
- T/C (T/C endpoint: mean survival time, dose: 200.0 mg/kg/injection, schedule: Q04DX003 (ip), vehicle: saline with Tween-80, evaluated on day 30): 143 % of control
- T/C (T/C endpoint: mean survival time, dose: 200.0 mg/kg/injection, schedule: Q04DX003 (ip), vehicle: saline with Tween-80, evaluated on day 60): 136 % of control
- T/C (T/C endpoint: mean survival time, dose: 200.0 mg/kg/injection, schedule: Q04DX003 (ip), vehicle: saline): 139, 141, 149 % of control
- survivor count (T/C endpoint: mean survival time, dose: 256.0 mg/kg/injection, schedule: Q01DX009 (oral), vehicle: saline): 6 of 8
- survivor count (T/C endpoint: mean survival time, dose: 256.0 mg/kg/injection, schedule: Q01DX009 (sc), vehicle: saline): 7 of 8
- T/C (T/C endpoint: mean survival time, dose: 256.0 mg/kg/injection, schedule: Q04DX003 (ip), vehicle: saline): 138 % of control
- T/C (T/C endpoint: mean survival time, dose: 266.0 mg/kg/injection, schedule: Q04DX003 (ip), vehicle: saline with Tween-80): 142 % of control
- T/C (T/C endpoint: mean survival time, dose: 320.0 mg/kg/injection, schedule: Q01DX009 (ip), vehicle: saline): 129 % of control
- survivor count (T/C endpoint: mean survival time, dose: 400.0 mg/kg/injection, schedule: Q01DX009 (ip), vehicle: saline with Tween-80): 4 of 6
- T/C (T/C endpoint: mean survival time, dose: 400.0 mg/kg/injection, schedule: Q04DX003 (ip), vehicle: saline with Tween-80, evaluated on day 30): 121, 158, 162 % of control
- T/C (T/C endpoint: mean survival time, dose: 400.0 mg/kg/injection, schedule: Q04DX003 (ip), vehicle: saline with Tween-80, evaluated on day 60): 160 % of control
- T/C (T/C endpoint: mean survival time, dose: 400.0 mg/kg/injection, schedule: Q04DX003 (ip), vehicle: saline): 139 % of control
- survivor count (T/C endpoint: mean survival time, dose: 512.0 mg/kg/injection, schedule: Q01DX009 (oral), vehicle: saline): 6 of 8
- survivor count (T/C endpoint: mean survival time, dose: 512.0 mg/kg/injection, schedule: Q01DX009 (sc), vehicle: saline): 8 of 8
- T/C (T/C endpoint: mean survival time, dose: 512.0 mg/kg/injection, schedule: Q04DX003 (ip), vehicle: saline): 131 % of control
- T/C (T/C endpoint: mean survival time, dose: 512.0 mg/kg/injection, schedule: Q08DX002 (ip), vehicle: saline): 129 % of control
- T/C (T/C endpoint: mean survival time, dose: 600.0 mg/kg/injection, schedule: Q04DX003 (ip), vehicle: Klucel (hydroxypropylcellulose) (HPC)): 125 % of control
- T/C (T/C endpoint: mean survival time, dose: 600.0 mg/kg/injection, schedule: Q04DX003 (ip), vehicle: saline with Tween-80, evaluated on day 30): 146 % of control
- T/C (T/C endpoint: mean survival time, dose: 600.0 mg/kg/injection, schedule: Q04DX003 (ip), vehicle: saline with Tween-80, evaluated on day 60): 142 % of control
- T/C (T/C endpoint: mean survival time, dose: 600.0 mg/kg/injection, schedule: Q04DX003 (ip), vehicle: saline): 148 % of control
- survivor count (T/C endpoint: mean survival time, dose: 1000.0 mg/kg/injection, schedule: Q04DX003 (ip), vehicle: Klucel (hydroxypropylcellulose) (HPC)): 8 of 10
- survivor count (T/C endpoint: mean survival time, dose: 1024.0 mg/kg/injection, schedule: Q01DX001 (ip), vehicle: saline): 5 of 8
- survivor count (T/C endpoint: mean survival time, dose: 1024.0 mg/kg/injection, schedule: Q01DX001 (oral), vehicle: saline): 5 of 8
- survivor count (T/C endpoint: mean survival time, dose: 1024.0 mg/kg/injection, schedule: Q01DX009 (oral), vehicle: saline): 2 of 8
- T/C (T/C endpoint: mean survival time, dose: 1024.0 mg/kg/injection, schedule: Q08DX002 (ip), vehicle: saline): 129 % of control
- T/C (T/C endpoint: median survival time, dose: 8.0 mg/kg/injection, schedule: Q01DX009 (ip), vehicle: saline): 127 % of control
- T/C (T/C endpoint: median survival time, dose: 8.0 mg/kg/injection, schedule: Q03HX008 (ip), vehicle: saline): 127 % of control
- T/C (T/C endpoint: median survival time, dose: 8.0 mg/kg/injection, schedule: Q03HX024 (ip), vehicle: saline): 133 % of control
- T/C (T/C endpoint: median survival time, dose: 16.0 mg/kg/injection, schedule: Q01DX009 (ip), vehicle: saline): 144 % of control
- T/C (T/C endpoint: median survival time, dose: 16.0 mg/kg/injection, schedule: Q03HX016 (ip), vehicle: saline): 133 % of control

— PubChem BioAssay AID248 (DTP/NCI, 2004)
